These are yes or no findings as the source states them, for the method shown.
What was measured:
Assay in all cases: BLI
MBI peptide (Biotin-…) = molecular target: T1, MBI peptide (Biotin-…)
T1 sequence (peptide, biotin on the N-terminus): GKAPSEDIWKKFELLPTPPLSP

MBII peptide (Biotin-…) = molecular target: T2, MBII peptide (Biotin-…)
T2 sequence (peptide, biotin on the N-terminus): IIIQDCMWSGFSAAAK

[1] = molecular target: T3, MBIIIa peptide (Biotin-…)
T3 sequence (peptide, biotin on the N-terminus): CIDPSVVFPYPL

[2] = molecular target: T4, MBIIIb peptide (Biotin-…)
T4 sequence (peptide, biotin on the N-terminus): EEEIDVVSVEKR

MBIV peptide (Biotin-…) = molecular target: T5, MBIV peptide (Biotin-…)
T5 sequence (peptide, biotin on the N-terminus): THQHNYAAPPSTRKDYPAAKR

binding (MBI peptide (Biotin-…)): no binding
binding (MBII peptide (Biotin-…)): no binding
binding [1]: no binding
binding [2]: no binding
binding (MBIV peptide (Biotin-…)): no binding
B1: PNUTS(1-148), PNUTS amino-terminal domain (PAD) (domain or fragment, UniProt Q96QC0 1-148)
chain: MGSGPIDPKELLKGLDSFLNRDGEVKSVDGISKIFSLMKEARKMVSRCTYLNILLQTRSPEILVKFIDVGGYKLLNNWLTYSKTTNNIPLLQQILLTLQHLPLTVDHLKQNNTAKLVKQLSKSSEDEELRKLASVLVSDWMAVIRSQS
